No constants are given. Whether binding was seen depends on the method and setting. Binding seen in cells or lysates may run through a third protein. Binding can be weak; no strength is given.
Experiments:
Test in all cases: co-IP
EGFP-Rab1A (human) = EGFP-Rab1A (human) (UniProt P62820)
EGFP-Rab35 (human) = EGFP-Rab35 (human) (UniProt Q15286)
EGFP-Rab4A (human) = EGFP-Rab4A (human) (UniProt P20338)
EGFP-Rab6B (human) = EGFP-Rab6B (human) (UniProt Q9NRW1)
[1] = biological target: CpoS(A)-FLAG (Chlamydia trachomatis A/HAR-13)
[2] = biological target: CpoS(Cm)-FLAG (Chlamydia muridarum Nigg) (UniProt Q9PKG5)
[3] = biological target: CpoS(L2)-FLAG (Chlamydia trachomatis L2/434/Bu)

The chains behind the UniProt entries cited, without tags or fusion partners. Where a name states a change or a piece, a line headed by the entry shows the natural chain unless it says otherwise.
UniProt P62820, whole entry, stated change not applied: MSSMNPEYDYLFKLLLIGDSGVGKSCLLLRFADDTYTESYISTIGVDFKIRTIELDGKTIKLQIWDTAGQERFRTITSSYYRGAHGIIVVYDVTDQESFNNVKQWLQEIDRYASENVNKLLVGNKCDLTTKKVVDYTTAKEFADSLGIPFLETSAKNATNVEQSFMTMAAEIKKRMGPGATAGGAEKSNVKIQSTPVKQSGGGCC
UniProt Q15286, whole entry: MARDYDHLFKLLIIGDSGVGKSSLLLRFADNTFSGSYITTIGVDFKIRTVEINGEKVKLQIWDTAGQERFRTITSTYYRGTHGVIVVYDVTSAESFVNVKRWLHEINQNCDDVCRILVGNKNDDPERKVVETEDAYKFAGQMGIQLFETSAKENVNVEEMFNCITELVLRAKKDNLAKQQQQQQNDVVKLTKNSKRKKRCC
UniProt P20338, whole entry, stated change not applied: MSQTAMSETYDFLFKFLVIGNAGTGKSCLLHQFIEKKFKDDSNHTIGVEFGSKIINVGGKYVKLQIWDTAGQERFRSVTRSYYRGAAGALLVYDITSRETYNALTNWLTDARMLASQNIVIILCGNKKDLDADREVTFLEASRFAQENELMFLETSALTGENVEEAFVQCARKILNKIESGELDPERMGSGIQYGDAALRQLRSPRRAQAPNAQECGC
UniProt Q9NRW1, whole entry, stated change not applied: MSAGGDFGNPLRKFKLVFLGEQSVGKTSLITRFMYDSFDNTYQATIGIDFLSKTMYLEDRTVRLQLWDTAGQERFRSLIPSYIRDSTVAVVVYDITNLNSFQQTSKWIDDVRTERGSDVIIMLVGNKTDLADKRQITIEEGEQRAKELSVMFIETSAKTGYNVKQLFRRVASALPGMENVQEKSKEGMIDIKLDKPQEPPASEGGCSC

| Substance | binding (EGFP-Rab1A (human)) | binding (EGFP-Rab35 (human)) | binding (EGFP-Rab4A (human)) | binding (EGFP-Rab6B (human)) | binding [1] | binding [2] | binding [3] |
| --- | --- | --- | --- | --- | --- | --- | --- |
| CpoS(L2)-FLAG (from UniProt A0A0H3MBY4) | binds | binds | binds | binds | – | – | – |
| EGFP-Rab1A (from UniProt P62820 1-205) | – | – | – | – | binds | binds | binds |
| EGFP-Rab4A (from UniProt P20338 1-218) | – | – | – | – | binds | binds | binds |
| EGFP-Rab5A (from UniProt P20339 1-215) | – | – | – | – | – | – | no binding |
| EGFP-Rab35 (from UniProt Q15286 1-201) | – | – | – | – | binds | binds | binds |

Reference: article doi:10.1101/2022.02.18.481055
